Assay results reported in article PMC4824076, “Integrated microfluidic approach for quantitative high-throughput measurements of transcription factor binding affinities”.
Where a protein sequence is shown, tags need not be part of it. Construct, isoform or probe ends are uncertain for at least one entry.

Each sequence was assayed against T1, ATF1 (Homo sapiens) (UniProt P18846) (assay: binding assay). Settings: MITOMI-type chip (QPID); rabbit reticulocyte lysate, 1 h; wash 50 mM HEPES; temperature not stated; DNA spotted at 0.0156-2 uM; protein translated in vitro; protein details: N-cMyc, C-His6 (kept); label: Cy5 on the primer strand.
T1 sequence (looked up, limits assumed): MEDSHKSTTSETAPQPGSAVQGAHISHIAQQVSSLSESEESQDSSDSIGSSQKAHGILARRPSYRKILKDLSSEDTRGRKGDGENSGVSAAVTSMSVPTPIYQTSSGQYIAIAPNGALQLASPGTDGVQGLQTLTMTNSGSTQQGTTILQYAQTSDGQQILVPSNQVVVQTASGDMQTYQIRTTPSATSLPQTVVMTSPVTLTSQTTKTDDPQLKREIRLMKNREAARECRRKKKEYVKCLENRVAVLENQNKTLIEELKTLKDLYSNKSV
“CGCCCGAGGGCGGCGTGTCGTCATCAAGCTGCGCGGGGCTCCGGCGGTATGAC (double strand) [95.ATF1_ATF3_CRE_hs_13]” showed a Kd of 192 nM. Sequence “CGCAAGCCCGCCTGCTTGCGTCACCGACGGACAGCACCCTCCGGCGGTATGAC (double strand) [68.ATF1_CRE_hs_20]” has a Kd of 102 nM. “CGCGGGTAGGTGGTGCCCCGTCACGTGCCGGAATCACCCTCCGGCGGTATGAC (double strand) [17.ATF3_CRE_hs_3]” showed a Kd of 149 nM. “CGCAACGTGGGCTGACCGTGACGTCACAATGGCGCGGCCAGCTCCGGCGGTATGAC (double strand) [5.ATF1_CRE_2]” showed a Kd of 71.4 nM. With “CGCGGGCTTCATTCACGGCCCCCCTACCGTCCGCGTACCTCCGGCGGTATGAC (double strand) [126.Unbound_non_CRE_5]” the Kd was over 2000 nM. “CGCCAGCAGCTGCCAGTGCGTCATCAGAGAGCGCCGGACTCCGGCGGTATGAC (double strand) [88.ATF1_ATF3_CRE_hs_6]” was tested, and the Kd was 192 nM. For “CGCGACCTTAGCAGTTAGCGTCAACCTCCGCACTCTATCTCCGGCGGTATGAC (double strand) [72.ATF1_CRE_hs_24]”, the Kd was 109 nM. Sequence “CGCGGCGCTGGAGGTGCGCGTCACTGTCCGCCGCCGTGCTCCGGCGGTATGAC (double strand) [102.ATF1_ATF3_CRE_hs_20]” has a Kd of 317 nM. “CGCGGTCAGAGAGAACCACGTCAGCTACTGGCCAGGCTCTCCGGCGGTATGAC (double strand) [120.Unbound_CRE_hs_4]” gave a Kd of 447 nM. With “CGCCTTGCCCTAATATTGCGTCATGAAGGCAGACCTACCTCCGGCGGTATGAC (double strand) [79.ATF1_CRE_hs_31]” the Kd was 223 nM. In the case of “CGCCTCTCGGCTGGGGTTCGTCACTGGGCGCGGGATTTCTCCGGCGGTATGAC (double strand) [16.ATF3_CRE_hs_2]”, the Kd is reported as over 2000 nM. Work on “CGCACCCGAGGGGGGAAACGTCATTGCGGGTAGCAACCCTCCGGCGGTATGAC (double strand) [65.ATF1_CRE_hs_17]” yielded a Kd of 429 nM. “CGCCAAGGAGCGGGCTCTCGTCACTTCCGGCGCCCGCCCTCCGGCGGTATGAC (double strand) [107.ATF1_ATF3_CRE_hs_25]” showed a Kd of 646 nM. With “CGCGTTGCAGCGCCCAGGCGTCAGAGGCGGAGGCCCGACTCCGGCGGTATGAC (double strand) [15.ATF3_CRE_hs_1]” the Kd was 1670 nM. In the case of “CGCCGCGAAGAGGGCGCGCGTCATCAGATCAAGTCGACCTCCGGCGGTATGAC (double strand) [104.ATF1_ATF3_CRE_hs_22]”, the Kd is reported as 121 nM. “CGCCCCCGATACGGCCGACGTCATTACCCTGCGACCGCCTCCGGCGGTATGAC (double strand) [111.ATF1_ATF3_CRE_hs_29]” showed a Kd of 255 nM. “CGCCCCTAAAGCACGGGCTGACGTCATTTCAGCAATGTGCTCTCCGGCGGTATGAC (double strand) [11.Unbound_CRE_2]” was tested, and the Kd was 109 nM. For “CGCGCCCGGCGCGGCCCCTGACGTCACCCCTCTGCGCCACGCTCCGGCGGTATGAC (double strand) [2.ATF3_CRE_2]”, the Kd was 62.8 nM. “CGCAAGTTGTTCTGGCGGCGTCATTTCAGCAGTCCCTGCTCCGGCGGTATGAC (double strand) [48.ATF3_CRE_hs_34]” showed a Kd of 842 nM. Sequence “CGCCGACCGAGACAGGTATGACGTCACTGGAGGTCGCCATTCTCCGGCGGTATGAC (double strand) [6.ATF1_CRE_3]” has a Kd of 51.6 nM. “CGCACCTGGACTCCAGAGCGTCACAGCTGCGCAATGAACTCCGGCGGTATGAC (double strand) [19.ATF3_CRE_hs_5]” showed a Kd of 282 nM. For “CGCGACGCCCTCGGGAGACGTCACCCGGACGCGACGACCTCCGGCGGTATGAC (double strand) [96.ATF1_ATF3_CRE_hs_14]”, the Kd was over 2000 nM. Work on “CGCGTCCTTTCGATGTTGCGTCATGCAGTGCGCCGGAGCTCCGGCGGTATGAC (double strand) [86.ATF1_ATF3_CRE_hs_4]” yielded a Kd of 186 nM. In the case of “CGCGCGCGCGCTGACCTATGACGTCATCGGGACGTTAAGCACTCCGGCGGTATGAC (double strand) [4.ATF1_CRE_1]”, the Kd is reported as 60.9 nM. With “CGCCCCATGAATGAACATTGACGTCAATGGGGCGGGGCGCGCTCCGGCGGTATGAC (double strand) [3.ATF3_CRE_3]” the Kd was 255 nM. “CGCGGCGCGCCCCGACAACGTCACCCGCAGACCGGCCACTCCGGCGGTATGAC (double strand) [100.ATF1_ATF3_CRE_hs_18]” showed a Kd of 150 nM. “CGCTCTCTGCGCGCCTCACGTCAGGGCCAAGAGCCTAGCTCCGGCGGTATGAC (double strand) [60.ATF1_CRE_hs_12]” showed a Kd of over 2000 nM. For “CGCCAACGAGTTCCAGTTCGTCAGCGGCCGCGAGACGGCTCCGGCGGTATGAC (double strand) [118.Unbound_CRE_hs_2]”, the Kd was 842 nM. “CGCTGTGGCCAGGAGCTGCGTCACATGGACTGAGGAATCTCCGGCGGTATGAC (double strand) [46.ATF3_CRE_hs_32]” gave a Kd of 438 nM. “CGCTCGGGCCGACAGCGTCGTCACCAGCTTTTATGGGGCTCCGGCGGTATGAC (double strand) [47.ATF3_CRE_hs_33]” was tested, and the Kd was 108 nM. In the case of “CGCCGCGAGCCAGAATGTCGTCACTCATCGGCGCCCGACTCCGGCGGTATGAC (double strand) [83.ATF1_ATF3_CRE_hs_1]”, the Kd is reported as 264 nM. In the case of “CGCCGGCGCGGCGCGGCACGTCAGTGGCCTTCCGGCCGCTCCGGCGGTATGAC (double strand) [116.ATF1_ATF3_CRE_hs_34]”, the Kd is reported as 112 nM. “CGCCGATTTCCGGGAACCCGTCAGGAAGGACATAAACACTCCGGCGGTATGAC (double strand) [23.ATF3_CRE_hs_9]” showed a Kd of 609 nM. Sequence “CGCGGCGCACGCTTAAGGCGTCACGAGTCTCGAGTTCACTCCGGCGGTATGAC (double strand) [78.ATF1_CRE_hs_30]” has a Kd of 766 nM. “CGCGGTGGCGCGGCGCGTTGACGTCATGGAGGCGGGGTGCTCTCCGGCGGTATGAC (double strand) [1.ATF3_CRE_1]” gave a Kd of 66.1 nM. “CGCGCTTGCCTGTGCTAACGTCAAAACGCAGCAAAACACTCCGGCGGTATGAC (double strand) [22.ATF3_CRE_hs_8]” showed a Kd of over 2000 nM. In the case of “CGCCCGGCGCAGCGTGTGCGTCACCAGCGGGCGTCGAGCTCCGGCGGTATGAC (double strand) [93.ATF1_ATF3_CRE_hs_11]”, the Kd is reported as 391 nM. Sequence “CGCCCCGGGCGTCGCCTACGTCATAACACTGCGCGGCCCTCCGGCGGTATGAC (double strand) [109.ATF1_ATF3_CRE_hs_27]” has a Kd of 115 nM. With “CGCCGCTGCCTGTGGTAACGTCAGTGGTTGCTAGGCAGCTCCGGCGGTATGAC (double strand) [63.ATF1_CRE_hs_15]” the Kd was over 2000 nM. With “CGCCCAATCAGAGCTCCTCGTCAGCATATGCAGAATTCCTCCGGCGGTATGAC (double strand) [62.ATF1_CRE_hs_14]” the Kd was 265 nM. Work on “CGCCGCGCAACCGCGTTGCGTCACTTCTGCCGCCCCTGCTCCGGCGGTATGAC (double strand) [70.ATF1_CRE_hs_22]” yielded a Kd of 317 nM. “CGCGCGCTCGGAGTGCTGCGTCACTCGCCACCAGGGACCTCCGGCGGTATGAC (double strand) [55.ATF1_CRE_hs_7]” gave a Kd of 122 nM. “CGCTCGGTGGCCTCCAGCCGTCAAACGACGCCGGCGGTCTCCGGCGGTATGAC (double strand) [39.ATF3_CRE_hs_25]” gave a Kd of over 2000 nM. “CGCGGGAGAGGTTCGTAACGTCACAGGCCTGCGACGGACTCCGGCGGTATGAC (double strand) [31.ATF3_CRE_hs_17]” gave a Kd of 594 nM. Sequence “CGCGTGGAAATATAGCGCCGTCAACATCTTTTCCCCATCTCCGGCGGTATGAC (double strand) [52.ATF1_CRE_hs_4]” has a Kd of 1630 nM. “CGCGTCGCACGCGTTTTGCGTCAGTTGGCAAGGCACTTCTCCGGCGGTATGAC (double strand) [92.ATF1_ATF3_CRE_hs_10]” showed a Kd of over 2000 nM. With “CGCTCACAGCACCTCGTGCGTCACTTGGCGGCGCCGGACTCCGGCGGTATGAC (double strand) [84.ATF1_ATF3_CRE_hs_2]” the Kd was over 2000 nM. “CGCACCCACCACATGACACGCCCACAGAACGCCCGCTCCTCCGGCGGTATGAC (double strand) [123.Unbound_non_CRE_2]” showed a Kd of over 2000 nM. Sequence “CGCCCTTCCGCGGGCGCCCGTCACGTGGGCGGGGTCACCTCCGGCGGTATGAC (double strand) [21.ATF3_CRE_hs_7]” has a Kd of 382 nM. In the case of “CGCTTGGGCATATCTTTCTGACGTCATGAGAGTGCGATACCCTCCGGCGGTATGAC (double strand) [13.Unbound_CRE_4]”, the Kd is reported as 83.4 nM. “CGCAATCTTATTGACATGCGTCAACGCGAGCTTGCGCTCTCCGGCGGTATGAC (double strand) [80.ATF1_CRE_hs_32]” showed a Kd of 146 nM. “CGCGTCGCAGAAGAATGGCGTCACAACGACTAAGTAGCCTCCGGCGGTATGAC (double strand) [87.ATF1_ATF3_CRE_hs_5]” showed a Kd of 312 nM. Sequence “CGCAAGGCTGTGGGATTGCGTCACAATGACTGCGGGATCTCCGGCGGTATGAC (double strand) [56.ATF1_CRE_hs_8]” has a Kd of 166 nM. “CGCACAGCCTGAGCCCAGCGTCAGTCTCTTCCGACAGTCTCCGGCGGTATGAC (double strand) [119.Unbound_CRE_hs_3]” was tested, and the Kd was 1740 nM. “CGCCGGGCTCTGGCCGCACGTCATTCCCGGCGCGACGCCTCCGGCGGTATGAC (double strand) [44.ATF3_CRE_hs_30]” showed a Kd of 327 nM. Work on “CGCCCAGTGCTGTGCGTCTGACGTCATTCTGCGGCGCTGGCCTCCGGCGGTATGAC (double strand) [7.ATF1_ATF3_CRE_1]” yielded a Kd of 124 nM. For “CGCCAGCAGCACCGACCGCGTCAACCCCTCTGTGCTCACTCCGGCGGTATGAC (double strand) [117.Unbound_CRE_hs_1]”, the Kd was 239 nM. “CGCGCGCGCGGCTGAAGACGTCATGGAGGGGGCTGGTGCTCCGGCGGTATGAC (double strand) [103.ATF1_ATF3_CRE_hs_21]” was tested, and the Kd was 673 nM. Sequence “CGCCGAGAGGCTCACCCCTGACGTCACCCAGTCCCCAGGGCCTCCGGCGGTATGAC (double strand) [14.Unbound_CRE_5]” has a Kd of 110 nM. “CGCGCCGTCCTGGTTTTCCGTCACCCTGGTTCTGTAGTCTCCGGCGGTATGAC (double strand) [43.ATF3_CRE_hs_29]” was tested, and the Kd was over 2000 nM.
